{"source": "the supplement of paper PMC8728848", "assay_in_all_cases": "glycan array binding signal (z-score within array); higher = stronger binding", "settings_in_all_cases": "glycan notation: IUPAC condensed, linker removed", "key": {"Fuc(a1-2)Gal": {"molecular_target": "Fuc(a1-2)Gal", "in_short": "(§1)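 From the Consortium for Functional Glycomics database, 3228 arrays were curated, keeping only those whose protein sequence was available. Binding is given as a within-array Z-score averaged across arrays sharing a protein sequence and across linkers. Negative Z-scores can be read as non-binding.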"}, "Fuc(a1-2)Gal(b1-3)GalNAc": {"molecular_target": "Fuc(a1-2)Gal(b1-3)GalNAc", "in_short": "as §1"}, "[1]": {"molecular_target": "Fuc(a1-2)Gal(b1-3)GalNAc(a1-3)[Fuc(a1-2)]Gal(b1-4)Glc", "in_short": "as §1"}, "[2]": {"molecular_target": "Fuc(a1-2)Gal(b1-3)GalNAc(a1-3)[Fuc(a1-2)]Gal(b1-4)GlcNAc", "in_short": "as §1"}, "[3]": {"molecular_target": "Fuc(a1-2)Gal(b1-3)GalNAc(b1-3)Gal", "in_short": "as §1"}, "[4]": {"molecular_target": "Fuc(a1-2)Gal(b1-3)GalNAc(b1-3)Gal(a1-4)Gal(b1-4)Glc", "in_short": "as §1"}, "[5]": {"molecular_target": "Fuc(a1-2)Gal(b1-3)GalNAc(b1-4)[Neu5Ac(a2-3)]Gal(b1-4)Glc", "in_short": "as §1"}, "Fuc(a1-2)Gal(b1-3)GlcNAc": {"molecular_target": "Fuc(a1-2)Gal(b1-3)GlcNAc", "in_short": "as §1"}, "[6]": {"molecular_target": "Fuc(a1-2)Gal(b1-3)GlcNAc(b1-2)Man(a1-3)[Fuc(a1-2)Gal(b1-3)GlcNAc(b1-2)Man(a1-6)]Man(b1-4)GlcNAc(b1-4)GlcNAc", "in_short": "as §1"}, "[7]": {"molecular_target": "Fuc(a1-2)Gal(b1-3)GlcNAc(b1-2)Man(a1-3)[Fuc(a1-2)Gal(b1-3)GlcNAc(b1-2)Man(a1-6)]Man(b1-4)GlcNAc(b1-4)[Fuc(a1-6)]GlcNAc", "in_short": "as §1"}, "[8]": {"molecular_target": "Fuc(a1-2)Gal(b1-3)GlcNAc(b1-3)Gal(b1-4)Glc", "in_short": "as §1"}, "[9]": {"molecular_target": "Fuc(a1-2)Gal(b1-3)GlcNAc(b1-3)GalNAc", "in_short": "as §1"}, "[10]": {"molecular_target": "Fuc(a1-2)Gal(b1-3)GlcNAc(b1-3)[Fuc(a1-2)Gal(b1-3)GlcNAc(b1-6)]GalNAc", "in_short": "as §1"}, "[11]": {"molecular_target": "Fuc(a1-2)Gal(b1-3)GlcNAc(b1-3)[Gal(b1-4)GlcNAc(b1-6)]Gal(b1-4)Glc", "in_short": "as §1"}, "[12]": {"molecular_target": "Fuc(a1-2)Gal(b1-3)GlcNAc(b1-3)[Neu5Ac(a2-6)Gal(b1-4)GlcNAc(b1-6)]Gal(b1-4)Glc", "in_short": "as §1"}, "[13]": {"molecular_target": "Fuc(a1-2)Gal(b1-3)GlcNAc6S", "in_short": "as §1"}, "[14]": {"molecular_target": "Fuc(a1-2)Gal(b1-3)[Fuc(a1-4)]GlcNAc", "in_short": "as §1"}, "[15]": {"molecular_target": "Fuc(a1-2)Gal(b1-3)[Fuc(a1-4)]GlcNAc(b1-2)Man(a1-3)[Fuc(a1-2)Gal(b1-3)[Fuc(a1-4)]GlcNAc(b1-2)Man(a1-3)]Man(b1-4)GlcNAc(b1-4)GlcNAc", "in_short": "as §1"}, "[16]": {"molecular_target": "Fuc(a1-2)Gal(b1-3)[Fuc(a1-4)]GlcNAc(b1-2)Man(a1-3)[Fuc(a1-2)Gal(b1-3)[Fuc(a1-4)]GlcNAc(b1-2)Man(a1-6)]Man(b1-4)GlcNAc(b1-4)[Fuc(a1-6)]GlcNAc(b1-4)[Fuc(a1-6)]GlcNAc", "in_short": "as §1"}, "[17]": {"molecular_target": "Fuc(a1-2)Gal(b1-3)[Fuc(a1-4)]GlcNAc(b1-3)[Fuc(a1-3)[Gal(b1-4)]GlcNAc(b1-6)]Gal(b1-4)Glc", "in_short": "as §1"}, "[18]": {"molecular_target": "Fuc(a1-2)Gal(b1-3)[Fuc(a1-4)]GlcNAc(b1-3)[Gal(b1-4)GlcNAc(b1-6)]Gal(b1-4)Glc", "in_short": "as §1"}, "Fuc(a1-2)Gal(b1-4)Glc": {"molecular_target": "Fuc(a1-2)Gal(b1-4)Glc", "in_short": "as §1"}, "Fuc(a1-2)Gal(b1-4)Glc6S": {"molecular_target": "Fuc(a1-2)Gal(b1-4)Glc6S", "in_short": "as §1"}, "Fuc(a1-2)Gal(b1-4)GlcNAc": {"molecular_target": "Fuc(a1-2)Gal(b1-4)GlcNAc", "in_short": "as §1"}, "[19]": {"molecular_target": "Fuc(a1-2)Gal(b1-4)GlcNAc(b1-2)Man", "in_short": "as §1"}, "[20]": {"molecular_target": "Fuc(a1-2)Gal(b1-4)GlcNAc(b1-2)Man(a1-3)[Fuc(a1-2)Gal(b1-4)GlcNAc(b1-2)Man(a1-6)]Man(b1-4)GlcNAc(b1-4)GlcNAc", "in_short": "as §1"}, "[21]": {"molecular_target": "Fuc(a1-2)Gal(b1-4)GlcNAc(b1-2)Man(a1-3)[Fuc(a1-2)Gal(b1-4)GlcNAc(b1-2)Man(a1-6)]Man(b1-4)GlcNAc(b1-4)[Fuc(a1-6)]GlcNAc", "in_short": "as §1"}, "[22]": {"molecular_target": "Fuc(a1-2)Gal(b1-4)GlcNAc(b1-2)[Fuc(a1-2)Gal(b1-4)GlcNAc(b1-4)]Man(a1-3)[Fuc(a1-2)Gal(b1-4)GlcNAc(b1-2)Man(a1-6)]Man(b1-4)GlcNAc(b1-4)GlcNAc", "in_short": "as §1"}, "[23]": {"molecular_target": "Fuc(a1-2)Gal(b1-4)GlcNAc(b1-3)Gal(b1-4)GlcNAc", "in_short": "as §1"}, "[24]": {"molecular_target": "Fuc(a1-2)Gal(b1-4)GlcNAc(b1-3)Gal(b1-4)GlcNAc(b1-2)Man(a1-3)[Fuc(a1-2)Gal(b1-4)GlcNAc(b1-3)Gal(b1-4)GlcNAc(b1-2)Man(a1-6)]Man(b1-4)GlcNAc(b1-4)GlcNAc", "in_short": "as §1"}}, "note": "The list shows a part of the results."}
{"binder": "OS9 (Arabidopsis thaliana) (protein) MRGSHHHHHHGMASMTGGQQMGRDLYDDDDKSRLQIFPAHLVGTFSRNNREPKYKIEFLPEDSPFHPGDNLESMVMLDKHGNRFLCYLPKEEKATSGWTSSQQNISTVMMETQQLVKLKTPDELLQPLSEKCLFRQEGWWSYEFCHQKYVRQLHVEDENKIVQEFFLGTFDPEATAAFNQTVSDASTDASQRYHSHVYTNGTTCDLTGSPREVEVRFVCAETRAMVTSITELSTCKYALTVQCPTLCKHPLFQLEKPVSHTIHCNAIPVEEDATRNKEEQAVDESPKMIADS", "values": [{"measurement": "glycan array binding signal (z-score)", "setting": "Fuc(a1-2)Gal", "value": -0.853}, {"measurement": "glycan array binding signal (z-score)", "setting": "Fuc(a1-2)Gal(b1-3)GalNAc", "value": -0.735}, {"measurement": "glycan array binding signal (z-score)", "setting": "[1]", "value": -0.33}, {"measurement": "glycan array binding signal (z-score)", "setting": "[2]", "value": 0.117}, {"measurement": "glycan array binding signal (z-score)", "setting": "[3]", "value": 2.39}, {"measurement": "glycan array binding signal (z-score)", "setting": "[4]", "value": 0.252}, {"measurement": "glycan array binding signal (z-score)", "setting": "[5]", "value": -0.224}, {"measurement": "glycan array binding signal (z-score)", "setting": "Fuc(a1-2)Gal(b1-3)GlcNAc", "value": -0.466}, {"measurement": "glycan array binding signal (z-score)", "setting": "[6]", "value": 0.063}, {"measurement": "glycan array binding signal (z-score)", "setting": "[7]", "value": -1.04}, {"measurement": "glycan array binding signal (z-score)", "setting": "[8]", "value": -0.833}, {"measurement": "glycan array binding signal (z-score)", "setting": "[9]", "value": -0.864}, {"measurement": "glycan array binding signal (z-score)", "setting": "[10]", "value": 1.7}, {"measurement": "glycan array binding signal (z-score)", "setting": "[11]", "value": 2.66}, {"measurement": "glycan array binding signal (z-score)", "setting": "[12]", "value": -0.904}, {"measurement": "glycan array binding signal (z-score)", "setting": "[13]", "value": 0.061}, {"measurement": "glycan array binding signal (z-score)", "setting": "[14]", "value": 1.23}, {"measurement": "glycan array binding signal (z-score)", "setting": "[15]", "value": 2.42}, {"measurement": "glycan array binding signal (z-score)", "setting": "[16]", "value": 0.05}, {"measurement": "glycan array binding signal (z-score)", "setting": "[17]", "value": -0.556}, {"measurement": "glycan array binding signal (z-score)", "setting": "[18]", "value": 0.86}, {"measurement": "glycan array binding signal (z-score)", "setting": "Fuc(a1-2)Gal(b1-4)Glc", "value": -0.433}, {"measurement": "glycan array binding signal (z-score)", "setting": "Fuc(a1-2)Gal(b1-4)Glc6S", "value": -0.313}, {"measurement": "glycan array binding signal (z-score)", "setting": "Fuc(a1-2)Gal(b1-4)GlcNAc", "value": -0.861}, {"measurement": "glycan array binding signal (z-score)", "setting": "[19]", "value": 0.609}, {"measurement": "glycan array binding signal (z-score)", "setting": "[20]", "value": 0.098}, {"measurement": "glycan array binding signal (z-score)", "setting": "[21]", "value": 0.078}, {"measurement": "glycan array binding signal (z-score)", "setting": "[22]", "value": -1.02}, {"measurement": "glycan array binding signal (z-score)", "setting": "[23]", "value": -0.44}, {"measurement": "glycan array binding signal (z-score)", "setting": "[24]", "value": 1.19}]}
